# Assay results reported in patent publication US12357632B2, “Methods of treating cholangiocarcinoma” (QED Therapeutics, Inc., priority 2019, dated 2025).
# What was measured:
# [1] = tested on: FGFR3-mutated VEx-MR086M1 patient-derived ureter carcinoma xenograft; experiment: Antitumor activity in Vex-MR086M1 patient-derived xenograft in nude mice; type: in vivo, Mouse (Mus musculus); settings: erdafitinib 15 mg/kg PO qdx21
# Description: The patient's tumor and the Patient-Derived Xenograph (PDX) have a FGFR3 mutation (S249C).
# Tumors of the same passage were transplanted subcutaneously onto 3-24 mice (donor mice, passage (n−1)). When these tumors reached 1470 to 1688 mm^3, donor mice were sacrificed by cervical dislocation, tumors were aseptically excised and dissected. After removing necrotic areas, tumors were cut into fragments measuring approximately 20 mm^3 and transferred in culture medium before grafting. […]
# (§1) Tumor volume was evaluated by measuring perpendicular tumor diameters, with a caliper, three time a week during the treatment period. […]
# (§2) Individual tumor growth delays (TGD) was calculated as the time in days required for individual tumors to reach 3- to 5-fold the initial tumor volume.
# (§3) The tumor growth delay index (TGDI) was calculated as the median growth delay in the treated group divided by the median growth delay in the control group.
# (§4) The percentage ratio between the mean tumor volume of a treated group (T) and the mean tumor volume of the control group (C) was calculated.
# The tumor growth rate was evaluated by the formula DT/T0 where DT is the difference in tumour volume (TV) between the considered day and the day of enrolment and T0 is mean TV at D0. […]
# [2] = tested on: FGFR3-mutated UREx-MR2057PD-AR patient-derived ureter carcinoma xenograft; experiment: Antitumor activity in UREx-MR2057PD-AR patient-derived xenograft in nude mice; type: in vivo, Mouse (Mus musculus); settings: erdafitinib 15 mg/kg PO qdx21
# Description: The UREx-MR2057PD-AR model was established from a metastatic lesion of a patient with urothelial carcinoma after progression under treatment with Erda. The treatment history before Erda is unknown but likely involved surgery and then non-targeted chemotherapy. The patient's tumor harbors an FGFR3 mutation, FGFR3 S249C (serine at amino acid 249 is mutated to cysteine), which is a known oncogenic mutation in the FGFR3 extracellular immunoglobulin-like domain that results in constitutive activation of the FGFR3 receptor.
# Tumors of the same passage were transplanted subcutaneously onto 3-24 mice (donor mice, passage (n−1)). […]
# as §1, §2, §3, §4
# The tumor growth rate was evaluated by the formula [Ty/Tx]−1 where Ty is mean tumor volume at the considered day and Tx is mean TV at DX. […]
compound,measurement,setting,value
"COc1cc(OC)cc(N(CCNC(C)C)c2ccc3ncc(-c4cnn(C)c4)nc3c2)c1 [Erdafitinib, reference compound]",antitumor activity compared to control group (words),[1],slight antitumor activity
same,antitumor activity compared to control group (words),[1]; listed as erdafitinib,statistically significant tumor growth inhibition
same,antitumor activity compared to control group (words),[2],did not show any antitumor activity
same,antitumor activity compared to control group (words),[2]; listed as erdafitinib,did not demonstrate any statistically significant tumor growth inhibition
